From paper PMC3584105, “Acute BDNF Treatment Upregulates GluR1-SAP97 and GluR2-GRIP1 Interactions: Implications for Sustained AMPA Receptor Expression” (PLoS ONE, 2013)
These are yes or no findings as the source states them, for the method shown. Binding seen in cells or lysates may run through a third protein. Some entries that bind do so weakly or less than the wild type.

Chains of the proteins cited; added tags and fusions are not shown. Residues count along the entry.
UniProt Q62696: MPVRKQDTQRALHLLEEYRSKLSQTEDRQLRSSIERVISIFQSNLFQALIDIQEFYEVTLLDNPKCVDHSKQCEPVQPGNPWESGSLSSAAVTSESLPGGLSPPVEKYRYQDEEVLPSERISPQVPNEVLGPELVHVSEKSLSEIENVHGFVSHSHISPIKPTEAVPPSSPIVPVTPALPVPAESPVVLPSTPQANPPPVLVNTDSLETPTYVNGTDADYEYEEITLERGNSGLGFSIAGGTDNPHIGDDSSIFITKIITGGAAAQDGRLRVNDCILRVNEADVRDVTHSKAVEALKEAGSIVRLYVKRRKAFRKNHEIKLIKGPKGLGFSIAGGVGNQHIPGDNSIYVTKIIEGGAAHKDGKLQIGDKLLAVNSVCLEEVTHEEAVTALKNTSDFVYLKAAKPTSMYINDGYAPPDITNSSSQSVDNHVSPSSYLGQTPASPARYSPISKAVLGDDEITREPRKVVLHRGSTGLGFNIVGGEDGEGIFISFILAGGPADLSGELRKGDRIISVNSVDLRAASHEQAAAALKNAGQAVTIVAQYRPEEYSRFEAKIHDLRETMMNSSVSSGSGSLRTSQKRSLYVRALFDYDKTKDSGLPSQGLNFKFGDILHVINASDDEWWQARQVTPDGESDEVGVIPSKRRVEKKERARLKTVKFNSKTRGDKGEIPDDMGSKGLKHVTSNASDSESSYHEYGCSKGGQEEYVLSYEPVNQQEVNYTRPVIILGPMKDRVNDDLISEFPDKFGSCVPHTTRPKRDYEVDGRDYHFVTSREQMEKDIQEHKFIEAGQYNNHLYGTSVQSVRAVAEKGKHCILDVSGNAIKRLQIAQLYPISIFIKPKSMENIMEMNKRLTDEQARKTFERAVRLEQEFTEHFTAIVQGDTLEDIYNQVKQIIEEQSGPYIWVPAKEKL
UniProt P97879: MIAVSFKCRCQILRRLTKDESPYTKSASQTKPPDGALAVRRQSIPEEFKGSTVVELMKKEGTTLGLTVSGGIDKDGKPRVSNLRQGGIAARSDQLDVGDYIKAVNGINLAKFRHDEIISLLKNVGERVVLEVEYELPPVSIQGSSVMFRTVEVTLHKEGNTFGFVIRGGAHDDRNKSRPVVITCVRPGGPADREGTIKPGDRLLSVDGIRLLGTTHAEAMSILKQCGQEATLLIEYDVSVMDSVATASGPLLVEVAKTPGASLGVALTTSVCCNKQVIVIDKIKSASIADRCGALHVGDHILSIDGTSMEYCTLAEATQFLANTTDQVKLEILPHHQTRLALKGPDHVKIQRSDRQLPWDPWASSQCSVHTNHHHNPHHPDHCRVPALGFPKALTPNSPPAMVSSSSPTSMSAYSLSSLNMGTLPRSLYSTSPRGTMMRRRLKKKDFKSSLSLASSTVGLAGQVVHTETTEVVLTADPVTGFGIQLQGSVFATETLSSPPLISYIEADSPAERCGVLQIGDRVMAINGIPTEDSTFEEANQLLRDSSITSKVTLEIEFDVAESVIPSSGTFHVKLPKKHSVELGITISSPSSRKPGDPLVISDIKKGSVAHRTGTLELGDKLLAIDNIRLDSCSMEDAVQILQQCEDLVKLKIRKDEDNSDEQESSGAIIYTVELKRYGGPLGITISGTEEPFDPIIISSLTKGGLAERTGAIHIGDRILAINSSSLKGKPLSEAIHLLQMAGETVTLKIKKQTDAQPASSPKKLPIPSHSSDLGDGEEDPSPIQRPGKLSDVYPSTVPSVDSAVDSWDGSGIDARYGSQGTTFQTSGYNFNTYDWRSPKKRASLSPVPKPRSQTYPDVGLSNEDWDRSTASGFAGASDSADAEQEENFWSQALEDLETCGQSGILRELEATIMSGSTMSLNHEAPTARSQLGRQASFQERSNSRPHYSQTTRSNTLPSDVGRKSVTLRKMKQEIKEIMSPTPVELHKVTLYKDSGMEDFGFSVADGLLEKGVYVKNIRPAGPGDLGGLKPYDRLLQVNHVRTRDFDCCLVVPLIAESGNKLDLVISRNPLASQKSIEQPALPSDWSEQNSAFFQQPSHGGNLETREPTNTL
UniProt P19490, residues 19-907: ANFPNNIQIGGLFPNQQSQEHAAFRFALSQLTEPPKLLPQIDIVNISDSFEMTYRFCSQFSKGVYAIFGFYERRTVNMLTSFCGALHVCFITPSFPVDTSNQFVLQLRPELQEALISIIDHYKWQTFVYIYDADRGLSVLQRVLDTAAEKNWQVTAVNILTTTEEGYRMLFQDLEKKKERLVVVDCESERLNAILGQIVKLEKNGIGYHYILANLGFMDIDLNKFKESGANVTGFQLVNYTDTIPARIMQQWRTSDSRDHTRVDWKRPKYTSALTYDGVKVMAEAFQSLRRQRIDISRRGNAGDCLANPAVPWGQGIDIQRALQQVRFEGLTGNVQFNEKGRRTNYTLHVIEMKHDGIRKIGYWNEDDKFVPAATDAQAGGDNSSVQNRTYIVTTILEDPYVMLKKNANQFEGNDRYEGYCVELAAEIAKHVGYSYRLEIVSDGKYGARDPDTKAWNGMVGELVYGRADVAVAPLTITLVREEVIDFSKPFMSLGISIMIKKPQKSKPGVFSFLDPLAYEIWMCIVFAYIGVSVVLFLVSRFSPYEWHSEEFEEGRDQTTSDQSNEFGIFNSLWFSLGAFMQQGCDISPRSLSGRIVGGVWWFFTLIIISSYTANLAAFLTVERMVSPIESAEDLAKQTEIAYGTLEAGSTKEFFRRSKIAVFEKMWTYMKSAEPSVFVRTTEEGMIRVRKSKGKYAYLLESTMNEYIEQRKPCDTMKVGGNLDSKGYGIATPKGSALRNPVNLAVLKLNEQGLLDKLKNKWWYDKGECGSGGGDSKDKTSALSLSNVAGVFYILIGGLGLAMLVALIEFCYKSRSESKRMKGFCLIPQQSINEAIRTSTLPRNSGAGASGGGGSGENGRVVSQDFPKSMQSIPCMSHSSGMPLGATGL
UniProt P19491, residues 22-883: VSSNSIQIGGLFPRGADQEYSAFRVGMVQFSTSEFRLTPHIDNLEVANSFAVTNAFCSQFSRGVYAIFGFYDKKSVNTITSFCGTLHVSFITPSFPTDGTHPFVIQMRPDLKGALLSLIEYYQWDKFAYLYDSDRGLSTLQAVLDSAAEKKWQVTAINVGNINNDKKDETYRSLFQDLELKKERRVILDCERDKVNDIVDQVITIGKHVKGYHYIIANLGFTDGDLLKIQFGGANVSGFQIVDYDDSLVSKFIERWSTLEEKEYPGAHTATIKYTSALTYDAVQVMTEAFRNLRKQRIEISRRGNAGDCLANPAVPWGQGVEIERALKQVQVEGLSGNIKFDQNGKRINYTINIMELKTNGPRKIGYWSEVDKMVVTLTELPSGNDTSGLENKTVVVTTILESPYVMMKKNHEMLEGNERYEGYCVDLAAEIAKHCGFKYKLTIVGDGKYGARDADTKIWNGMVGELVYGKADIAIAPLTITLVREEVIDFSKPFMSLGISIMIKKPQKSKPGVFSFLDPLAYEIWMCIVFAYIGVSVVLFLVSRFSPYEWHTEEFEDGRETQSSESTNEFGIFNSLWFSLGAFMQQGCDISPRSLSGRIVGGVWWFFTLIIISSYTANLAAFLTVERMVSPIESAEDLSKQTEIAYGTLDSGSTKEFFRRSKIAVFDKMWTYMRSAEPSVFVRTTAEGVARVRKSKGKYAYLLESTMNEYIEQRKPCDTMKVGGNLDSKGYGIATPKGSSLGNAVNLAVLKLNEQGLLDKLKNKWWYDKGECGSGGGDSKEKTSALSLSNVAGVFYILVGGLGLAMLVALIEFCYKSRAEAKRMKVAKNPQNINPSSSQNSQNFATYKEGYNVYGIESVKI

What was measured:
[1] = molecular target: synapse-associated protein of 97 kDa (SAP97) (rat (endogenous in cultured neocortical neurons)) (UniProt Q62696); experiment: co-IP; as a1, the vehicle-treated (no BDNF) neurons alone; anti-SAP97 precipitate probed with anti-GluR1
[2] = molecular target: synapse-associated protein of 97 kDa (SAP97) (rat (endogenous in cultured neocortical neurons)) (UniProt Q62696); experiment: co-IP; lysate of DIV 14 cultured rat cortical neurons treated with BDNF (1 h, 50 ng/ml) or not; immunoprecipitation buffer with 1% deoxycholate, pH 7.5; anti-SAP97 or anti-GRIP1 pre-adsorbed to Protein A/Protein G-sepharose, overnight at 4°C; blots probed with anti-GluR1 or anti-GluR2
[3] = molecular target: glutamate receptor-interacting protein1 (GRIP1) (rat (endogenous in cultured neocortical neurons)) (UniProt P97879); experiment: as above
[4] = molecular target: GRIP1 (expressed in HEKTrkB cells) (UniProt P97879); experiment: co-IP; lysate of HEKTrkB cells co-transfected with GluR2 and GRIP1, treated with BDNF (1 h, 50 ng/mL) or not; precipitation with anti-N-terminal GluR2 and blot with anti-GRIP1, or precipitation with anti-GRIP1 and blot with anti-C-terminal GluR2/3

“AMPA receptor subunit GluR1 (from UniProt P19490-1 19-907)” was tested, and the binding [1] was “binds weakly” and the binding [2] was “binds”.
“AMPA receptor subunit GluR2 (from UniProt P19491 22-883)” was tested, and the binding [3] was “binds”.
“GluR2 (wild type, full length, expressed in HEKTrkB cells) (from UniProt P19491 22-883) (receptor)” was tested, and the binding [4] was “binds”.
